Results deposited as PubChem BioAssay AID1259314 (Drosophila RNAi Screening Center, 2017)
Assay: 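Transmembrane protein genes affecting ATP after manganese overload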 (primary screen). System: Drosophila S2R+ cells. Reagent: long dsRNA against Drosophila genes. Timing: 5 days (4 days knock-down, then 1 day metal exposure). Challenge: manganese chloride added to 15 mM for 24 hours. Detection: 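Cellular ATP measured by luciferase light, scaled to the plate mean, averaged across replicates and z-scored over plates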. Reading the numbers: mean ATP z-score: higher = more ATP than the plate average, more viable cells under manganese. Hit rule: 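a mean ATP z-score past 1.5 in either direction is called active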. Meaning of the calls: active = strong ATP change, up or down; inactive = no strong ATP change.
In all, the deposit lists about 3,100 reagents; shown is a part drawn at random. Of all reagents, 289 (9.3%) are marked active. 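Active includes both higher and lower ATP than plate average; check the z-score sign for direction.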 Unmarked entries are inactive. No sequences are given here. Not stated in the record: the amount of reagent.

gene	PubChem SID	mean ATP z-score
CG8112 (GeneID 41033)	SID104196169	0.194
CG8112 (GeneID 41033)	SID104216997	-0.175
CG14605 (GeneID 40867)	SID104192341	-0.577
CG14605 (GeneID 40867)	SID104207739	0.538
CG9663 (GeneID 33541)	SID104180516	-0.852
tty (GeneID 33109)	SID104200380	-0.815
tty (GeneID 33109)	SID104205412	-0.856
Vha100-3 (GeneID 246543)	SID104185552	-0.0856
Vha100-3 (GeneID 246543)	SID104217133	1.31
CG15923 (GeneID 42443)	SID104194921	-0.812
Vha100-1 (GeneID 43442)	SID104193940	0.502
Vha100-1 (GeneID 43442)	SID104217437	1.28
Nup133 (GeneID 42680)	SID104195942	0.107
SdhCL (GeneID 41324)	SID104195870	-0.246
SdhCL (GeneID 41324)	SID104217333	0.576
snu (GeneID 43391)	SID104196381	5.39 (active)
snu (GeneID 43391)	SID104217295	-0.397
CG32432 (GeneID 40310)	SID104191536	-0.814
cdm (GeneID 42171)	SID104196005	0.793
CG9664 (GeneID 33540)	SID104180517	-0.309

Part of the list above, set out differently.
gene | PubChem SID | mean ATP z-score
CG15923 (GeneID 42443) | SID104194921 | -0.812
Vha100-1 (GeneID 43442) | SID104193940 | 0.502

The listing continues:
gene	PubChem SID	mean ATP z-score
CG10761 (GeneID 31749)	SID104197545	0.259
CG10761 (GeneID 31749)	SID104206209	1.13
Tmtc4 (GeneID 41867)	SID104195494	0.0613
Tmtc4 (GeneID 41867)	SID104217204	0.609
emp (GeneID 37999)	SID104183811	0.589
emp (GeneID 37999)	SID104184475	-0.258
Dic4 (GeneID 40039)	SID104190109	-0.189
Alg10 (GeneID 326193)	SID104190684	-1.14
Alg10 (GeneID 326193)	SID104217026	1.81 (active)
PlexB (GeneID 43766)	SID104196969	-0.253
CG13743 (GeneID 35911)	SID104202136	-0.712
Vha16-3 (GeneID 317846)	SID104190664	-0.665
Vha16-3 (GeneID 317846)	SID104204058	2.94 (active)
CG30394 (GeneID 37437)	SID104183866	-0.322
CG30394 (GeneID 37437)	SID104184052	-0.254
lz (GeneID 31883)	SID104203703	2.1 (active)
lz (GeneID 31883)	SID104215163	-0.169
Sarm (GeneID 38895)	SID104188698	0.0215
Sarm (GeneID 38895)	SID104188699	0.211
Sarm (GeneID 38895)	SID104189830	0.757
Sarm (GeneID 38895)	SID104190719	0.00311
Sarm (GeneID 38895)	SID104190721	-0.89
santa-maria (GeneID 34024)	SID104180786	0.151
santa-maria (GeneID 34024)	SID104181972	0.405
Karybeta3 (GeneID 40581)	SID104192147	-0.961
Karybeta3 (GeneID 40581)	SID104217476	-0.637
